Assay results from paper PMC12786276.
Results are given in words; binding and its absence hold for the method and conditions named. Binding seen in cells or lysates may run through a third protein. Some entries that bind do so weakly or less than the wild type.

Protein sequences, listed by entry. Tags and fused reporters are not part of them. Lines headed by an entry give the natural chain unless they say otherwise; changes in a name come on top. Chains listed by the source or under a name are the forms on record and can include a tag or linker. Residues count along the entry.
UniProt P06756, residues 31-1048: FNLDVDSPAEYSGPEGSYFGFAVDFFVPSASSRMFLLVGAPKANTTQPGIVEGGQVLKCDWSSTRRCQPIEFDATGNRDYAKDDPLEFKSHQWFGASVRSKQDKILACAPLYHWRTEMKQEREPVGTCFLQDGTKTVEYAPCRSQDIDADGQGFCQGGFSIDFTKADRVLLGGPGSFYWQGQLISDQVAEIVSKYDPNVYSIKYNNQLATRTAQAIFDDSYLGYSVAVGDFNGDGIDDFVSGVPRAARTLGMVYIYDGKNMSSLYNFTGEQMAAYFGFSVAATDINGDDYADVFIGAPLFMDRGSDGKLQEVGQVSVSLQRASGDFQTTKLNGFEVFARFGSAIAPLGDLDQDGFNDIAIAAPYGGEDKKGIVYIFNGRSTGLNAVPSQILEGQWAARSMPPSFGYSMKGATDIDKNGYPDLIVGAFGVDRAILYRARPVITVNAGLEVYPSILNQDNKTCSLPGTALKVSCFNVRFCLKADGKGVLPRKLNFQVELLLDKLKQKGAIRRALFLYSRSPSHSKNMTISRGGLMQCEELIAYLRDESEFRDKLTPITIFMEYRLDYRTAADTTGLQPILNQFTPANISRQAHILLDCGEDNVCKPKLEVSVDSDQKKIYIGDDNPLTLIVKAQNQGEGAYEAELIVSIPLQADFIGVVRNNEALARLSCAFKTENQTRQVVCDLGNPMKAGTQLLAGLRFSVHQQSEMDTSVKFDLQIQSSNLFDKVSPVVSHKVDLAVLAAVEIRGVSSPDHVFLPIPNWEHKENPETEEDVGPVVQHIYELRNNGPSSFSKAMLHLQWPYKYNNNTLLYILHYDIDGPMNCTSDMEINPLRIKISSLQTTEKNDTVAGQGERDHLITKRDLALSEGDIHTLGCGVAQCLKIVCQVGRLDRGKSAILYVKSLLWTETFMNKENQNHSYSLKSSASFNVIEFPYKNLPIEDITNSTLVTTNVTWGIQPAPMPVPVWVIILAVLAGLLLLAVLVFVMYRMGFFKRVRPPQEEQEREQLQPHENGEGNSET
UniProt P05106, residues 27-788: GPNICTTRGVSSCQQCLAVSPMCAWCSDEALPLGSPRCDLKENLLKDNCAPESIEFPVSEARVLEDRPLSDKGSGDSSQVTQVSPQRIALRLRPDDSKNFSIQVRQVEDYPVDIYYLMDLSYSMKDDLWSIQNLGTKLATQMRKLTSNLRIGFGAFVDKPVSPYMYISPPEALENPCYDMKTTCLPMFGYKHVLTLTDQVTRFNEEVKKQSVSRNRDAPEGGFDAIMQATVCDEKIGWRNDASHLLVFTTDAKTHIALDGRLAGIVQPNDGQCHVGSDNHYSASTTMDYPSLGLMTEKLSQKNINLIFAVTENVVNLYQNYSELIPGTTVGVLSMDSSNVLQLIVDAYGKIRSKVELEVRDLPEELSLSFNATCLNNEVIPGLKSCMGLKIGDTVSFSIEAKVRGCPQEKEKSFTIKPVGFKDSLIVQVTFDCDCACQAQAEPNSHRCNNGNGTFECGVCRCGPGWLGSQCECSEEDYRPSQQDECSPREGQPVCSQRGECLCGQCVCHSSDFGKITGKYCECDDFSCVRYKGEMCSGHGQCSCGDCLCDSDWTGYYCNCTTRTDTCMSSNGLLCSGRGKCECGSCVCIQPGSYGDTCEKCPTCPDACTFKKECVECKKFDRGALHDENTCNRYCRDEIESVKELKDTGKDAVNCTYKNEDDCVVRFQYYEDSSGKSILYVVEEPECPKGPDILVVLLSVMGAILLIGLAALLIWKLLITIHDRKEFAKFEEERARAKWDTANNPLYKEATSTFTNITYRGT
HA-tagged CD47 (pcDNA3.1–hCD47–HA) (Q08722, residues 19-323): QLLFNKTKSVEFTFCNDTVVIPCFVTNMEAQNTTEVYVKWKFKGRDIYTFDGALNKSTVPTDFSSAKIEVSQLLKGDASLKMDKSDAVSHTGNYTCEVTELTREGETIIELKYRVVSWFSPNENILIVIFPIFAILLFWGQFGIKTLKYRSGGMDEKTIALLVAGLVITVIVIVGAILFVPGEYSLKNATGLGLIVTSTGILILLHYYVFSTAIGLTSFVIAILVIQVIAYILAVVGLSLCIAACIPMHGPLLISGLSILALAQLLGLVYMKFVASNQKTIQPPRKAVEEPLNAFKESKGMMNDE
HA–CD47Δ62–67 (Q08722, form named): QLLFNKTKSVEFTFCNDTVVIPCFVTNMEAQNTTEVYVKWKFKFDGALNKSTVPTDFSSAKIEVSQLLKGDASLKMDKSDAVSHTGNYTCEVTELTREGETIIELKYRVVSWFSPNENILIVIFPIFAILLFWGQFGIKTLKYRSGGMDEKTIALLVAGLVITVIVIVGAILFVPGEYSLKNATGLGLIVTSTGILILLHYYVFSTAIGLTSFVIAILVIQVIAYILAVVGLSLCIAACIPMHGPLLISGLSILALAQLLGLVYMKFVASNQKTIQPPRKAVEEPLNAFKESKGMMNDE
HA–CD47Δ80–85 (Q08722, form named): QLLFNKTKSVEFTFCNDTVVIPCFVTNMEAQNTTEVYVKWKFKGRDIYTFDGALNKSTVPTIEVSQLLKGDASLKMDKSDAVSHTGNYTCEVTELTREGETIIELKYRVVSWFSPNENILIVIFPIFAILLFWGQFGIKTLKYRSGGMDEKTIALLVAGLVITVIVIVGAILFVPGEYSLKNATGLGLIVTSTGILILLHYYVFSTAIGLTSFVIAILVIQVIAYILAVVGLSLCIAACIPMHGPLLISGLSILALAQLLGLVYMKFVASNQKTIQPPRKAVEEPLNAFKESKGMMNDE
HA–CD47Δ26–32 (Q08722, form named): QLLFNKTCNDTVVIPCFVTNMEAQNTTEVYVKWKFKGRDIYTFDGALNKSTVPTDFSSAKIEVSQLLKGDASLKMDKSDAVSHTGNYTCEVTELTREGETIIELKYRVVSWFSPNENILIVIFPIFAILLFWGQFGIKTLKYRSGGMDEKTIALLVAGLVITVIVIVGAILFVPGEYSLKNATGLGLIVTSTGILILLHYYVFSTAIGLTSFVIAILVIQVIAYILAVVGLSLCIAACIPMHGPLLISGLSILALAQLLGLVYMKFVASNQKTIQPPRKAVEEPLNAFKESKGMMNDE
HA–CD47Δ69–73 (Q08722, form named): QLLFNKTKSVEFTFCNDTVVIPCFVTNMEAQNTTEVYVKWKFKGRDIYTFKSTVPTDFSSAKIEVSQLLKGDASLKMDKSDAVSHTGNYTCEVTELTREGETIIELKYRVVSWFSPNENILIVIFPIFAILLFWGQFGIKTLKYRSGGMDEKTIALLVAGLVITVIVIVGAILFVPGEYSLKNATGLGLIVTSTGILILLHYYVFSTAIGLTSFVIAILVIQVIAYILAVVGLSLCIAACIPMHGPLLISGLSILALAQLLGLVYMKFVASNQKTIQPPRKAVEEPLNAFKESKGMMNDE
HA–CD47Δ44–50 (Q08722, form named): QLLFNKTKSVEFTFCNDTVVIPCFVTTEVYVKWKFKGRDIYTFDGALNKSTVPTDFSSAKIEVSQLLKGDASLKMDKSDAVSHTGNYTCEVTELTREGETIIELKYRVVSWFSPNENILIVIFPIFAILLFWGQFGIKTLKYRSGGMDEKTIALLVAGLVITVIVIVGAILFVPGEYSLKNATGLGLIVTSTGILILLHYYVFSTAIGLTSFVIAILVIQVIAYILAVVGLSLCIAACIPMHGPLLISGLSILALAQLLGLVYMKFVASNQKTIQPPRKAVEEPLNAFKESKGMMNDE

Experiments:
[1] = target: Flag-tagged integrin αv subunit (pcDNA3.1–hITGAV–Flag) (human) (UniProt P06756); test: co-IP; HEK293 cells cotransfected with HA–CD47 (or one of six loop deletions) and Flag–ITGAV or Myc–ITGB3; immunoprecipitation with Flag- or Myc-beads, overnight at 4 °C; blot for HA
[2] = target: Myc-tagged integrin β3 subunit (pcDNA3.1–hITGB3–Myc) (human) (UniProt P05106); test: as above
[3] = target: HA-tagged CD47 (pcDNA3.1–hCD47–HA) (human) (UniProt Q08722); test: co-IP; HEK293 cells cotransfected with Flag-αv, Myc-β3 and HA-CD47; immunoprecipitation by HA; blots for αv and β3

Row | Substance | binding [1] | binding [2] | binding [3]
1 | HA-tagged CD47 (pcDNA3.1–hCD47–HA) (from UniProt Q08722 19-323) | binds | binds | –
2 | HA–CD47Δ62–67 (from UniProt Q08722 19-323) | binds | binds | –
3 | Flag-tagged integrin αv subunit (pcDNA3.1–hITGAV–Flag) (from UniProt P06756 31-1048) | – | – | binds
4 | HA–CD47Δ80–85 (from UniProt Q08722 19-323) | binds | binds | –
5 | HA–CD47Δ26–32 (from UniProt Q08722 19-323) | binds | binds | –
6 | Myc-tagged integrin β3 subunit (pcDNA3.1–hITGB3–Myc) (from UniProt P05106 27-788) | – | – | binds
7 | HA–CD47Δ69–73 (from UniProt Q08722 19-323) | binds | binds | –
8 | HA–CD47Δ44–50 (from UniProt Q08722 19-323) | binds | binds | –
